Consider 30 compounds from US12427179B2, “Compositions and methods for diagnosis and treatment of neurodegenerative diseases” (EPITRACKER, INC., priority 2019, dated 2025).

What all share (type): in vivo, bottlenose dolphins (Tursiops truncatus)
A short description of series [1]: Serum biochemical quantities, wild dolphins compared to Navy dolphins. The conditions noted are these: wild (Sarasota Bay) over Navy dolphins.
Another series relates to Neuronal iron density. Kind of series: Serum biochemical age-group ratio in dolphins with high vs low neuronal iron density. Conditions: *3-15 years old:0-2 years old; for Serum biochemical quantity ratio, High density: high neuronal iron density dolphins; for Serum biochemical quantity ratio, Low density: low neuronal iron density dolphins.
Another series concerns Amyloid-β plaque density. Kind of series: Serum biochemical age-group ratio in dolphins with high vs low brain amyloid-β plaque density. The conditions noted are these: for Serum biochemical quantity ratio, High density: high amyloid-β plaque density dolphins; for Serum biochemical quantity ratio, Low density: low amyloid-β plaque density dolphins.
The mark [2] stands for this setting: 15-to-25-year old over 3-to-15-year old.
Where [3] appears, read: ^+26-35 years old:15-25 years old.

Where “and” joins values, the source holds several entries; their conditions need not be identical. Equal entries are not always repeated.

Turning to arabitol/xylitol, the “Serum biochemical quantity ratio, Ratio (wild dolphins compared to Navy dolphins)” value (“Serum biochemical quantity ratio, Ratio” for short) in series [1] worked out at 1.34. In addition, in the series on Neuronal iron density, the “Serum biochemical quantity ratio, High density” value is recorded as 0.67 and the “Serum biochemical quantity ratio, Low density” value is 1.39.

Regarding `CCC(C)C(=O)OC(CC(=O)[O-])C[N+](C)(C)C` (stereo not drawn) [2-methylbutyrylcarnitine (C5)], the “Serum biochemical quantity ratio, Ratio” value in series [1] was determined as 1.68. In the series on Amyloid-β plaque density (setting [2]), the “Serum biochemical quantity ratio, High density” value stood at 0.49 and the “Serum biochemical quantity ratio, Low density” value came out at 1.06.

For the compound triacylglycerol 54:2-FA20:0, the “Serum biochemical quantity ratio, Ratio” value in series [1] is recorded as 8.41. Moreover, in the series on Amyloid-β plaque density (setting [3]), the “Serum biochemical quantity ratio, High density” value worked out at 0.17 and the “Serum biochemical quantity ratio, Low density” value amounted to 1.24.

As for `O=C(O)/C=C\C(=O)O` [maleate], the “Serum biochemical quantity ratio, Ratio” value in series [1] was 1.06. In the series on Neuronal iron density, the “Serum biochemical quantity ratio, High density” value turned out to be 0.88 and the “Serum biochemical quantity ratio, Low density” value is 1.74.

On to phosphatidylcholine (20:0/18:2), for which, in series [1], the “Serum biochemical quantity ratio, Ratio” value is recorded as 3.66. In the series with Amyloid-β plaque density (setting [2]), the “Serum biochemical quantity ratio, High density” value was determined as 0.55 and the “Serum biochemical quantity ratio, Low density” value was found to be 1.13.

In the case of `CC(N[C@H](C(=O)O)C(C)C)C(=O)O` (stereo partly drawn) [1-carboxyethylvaline], the “Serum biochemical quantity ratio, Ratio” value in series [1] was determined as 5.4. For the same compound, in the series on Amyloid-β plaque density (setting [2]), the “Serum biochemical quantity ratio, High density” value came to 0.60 and the “Serum biochemical quantity ratio, Low density” value is 1.32.

triacylglycerol 58:6-FA22:4: the “Serum biochemical quantity ratio, Ratio” value in series [1] turned out to be 2.47. Also, in the series on Amyloid-β plaque density (setting [3]), the “Serum biochemical quantity ratio, High density” value is 0.44 and the “Serum biochemical quantity ratio, Low density” value was 0.91.

For the compound methylnaphthyl sulfate, in series [1], the “Serum biochemical quantity ratio, Ratio” value is 0.73. Moreover, in the series on Amyloid-β plaque density (setting [2]), the “Serum biochemical quantity ratio, High density” value is on record as 0.43 and the “Serum biochemical quantity ratio, Low density” value amounted to 1.17.

Take phosphatidylcholine (20:0/16:1): the “Serum biochemical quantity ratio, Ratio” value in series [1] amounted to 5.81. Moreover, in the series on Amyloid-β plaque density (setting [2]), the “Serum biochemical quantity ratio, High density” value came out at 0.39 and the “Serum biochemical quantity ratio, Low density” value is 1.11.

In the case of `C[N+](C)(C)CC(=O)O` [betaine], the “Serum biochemical quantity ratio, Ratio” value in series [1] is recorded as 1.52. In the series on Neuronal iron density, the “Serum biochemical quantity ratio, High density” value came out at 0.84 and the “Serum biochemical quantity ratio, Low density” value was 1.04.

On to triacylglycerol 52:1-FA20:0, for which the “Serum biochemical quantity ratio, Ratio” value in series [1] is given as 9.47. Further, in the series with Amyloid-β plaque density (setting [3]), the “Serum biochemical quantity ratio, High density” value amounted to 0.15 and the “Serum biochemical quantity ratio, Low density” value is 1.19.

`CC(=O)NCCS(=O)(=O)O` [N-acetyltaurine]: the “Serum biochemical quantity ratio, Ratio” value in series [1] amounted to 1.05. Besides, in the series with Neuronal iron density, the “Serum biochemical quantity ratio, High density” value is given as 0.72 and the “Serum biochemical quantity ratio, Low density” value is 1.25.

As to phosphatidylethanolamine (18:1/22:0), the “Serum biochemical quantity ratio, Ratio” value in series [1] was determined as 6.36. For the same compound, in the series with Amyloid-β plaque density (setting [2]), the “Serum biochemical quantity ratio, High density” value came out at 0.38 and the “Serum biochemical quantity ratio, Low density” value is recorded as 1.16.

Consider triacylglycerol 54:1-FA20:0, for which the “Serum biochemical quantity ratio, Ratio” value in series [1] was 9.48. For the same compound, in the series with Amyloid-β plaque density (setting [3]), the “Serum biochemical quantity ratio, High density” value came out at 0.16 and the “Serum biochemical quantity ratio, Low density” value was found to be 1.09.

For `O=c1[nH]c(=O)c2ncn([C@@H]3O[C@H](CO)[C@@H](O)[C@H]3O)c2[nH]1` [xanthosine], the “Serum biochemical quantity ratio, Ratio” value in series [1] was 2.1 and 2.01. In addition, in the series on Amyloid-β plaque density (setting [2]), the “Serum biochemical quantity ratio, High density” value is reported as 0.69 and the “Serum biochemical quantity ratio, Low density” value is listed as 1.14.

For the compound `CC(C)C(=O)C(=O)O` [3-methyl-2-oxobutyrate], in series [1], the “Serum biochemical quantity ratio, Ratio” value is 1.2. Moreover, in the series on Neuronal iron density, the “Serum biochemical quantity ratio, High density” value came out at 0.66 and the “Serum biochemical quantity ratio, Low density” value came out at 1.86.

With `CC(C)CC(=O)C(=O)O` [4-methyl-2-oxopentanoate], the “Serum biochemical quantity ratio, Ratio” value in series [1] amounted to 1.22. Besides, in the series on Neuronal iron density, the “Serum biochemical quantity ratio, High density” value was 0.68 and the “Serum biochemical quantity ratio, Low density” value was 1.42.

Regarding triacylglycerol 58:5-FA18:1, the “Serum biochemical quantity ratio, Ratio” value in series [1] is 2.57. In the series with Amyloid-β plaque density (setting [3]), the “Serum biochemical quantity ratio, High density” value is given as 0.46 and the “Serum biochemical quantity ratio, Low density” value is on record as 1.02.

As for phosphatidylcholine (20:0/18:1), the “Serum biochemical quantity ratio, Ratio” value in series [1] is given as 7.04. For the same compound, in the series with Amyloid-β plaque density (setting [2]), the “Serum biochemical quantity ratio, High density” value was 0.33 and the “Serum biochemical quantity ratio, Low density” value is 1.02.

Turning to `CC(C)C[C@H](NC(C)C(=O)O)C(=O)O` (stereo partly drawn) [1-carboxyethylleucine], the “Serum biochemical quantity ratio, Ratio” value in series [1] was 6.54. Moreover, in the series with Amyloid-β plaque density (setting [2]), the “Serum biochemical quantity ratio, High density” value is given as 0.29 and the “Serum biochemical quantity ratio, Low density” value is 1.28.

In the case of benzoylcarnitine, in series [1], the “Serum biochemical quantity ratio, Ratio” value came out at 2.14. For the same compound, in the series with Amyloid-β plaque density (setting [2]), the “Serum biochemical quantity ratio, High density” value came out at 0.55 and the “Serum biochemical quantity ratio, Low density” value is 1.21.

triacylglycerol 56:2-FA20:0: the “Serum biochemical quantity ratio, Ratio” value in series [1] was 10.95. For the same compound, in the series on Amyloid-β plaque density (setting [3]), the “Serum biochemical quantity ratio, High density” value is 0.13 and the “Serum biochemical quantity ratio, Low density” value is on record as 1.06.

For phosphatidylcholine (20:0/20:5), the “Serum biochemical quantity ratio, Ratio” value in series [1] amounted to 1.86. For the same compound, in the series on Amyloid-β plaque density (setting [2]), the “Serum biochemical quantity ratio, High density” value came out at 0.76 and the “Serum biochemical quantity ratio, Low density” value was 1.14.

As for `O=C(O)CNC(=O)c1ccccc1` [hippurate], the “Serum biochemical quantity ratio, Ratio” value in series [1] is 2.0 and 1.99. Also, in the series on Amyloid-β plaque density (setting [2]), the “Serum biochemical quantity ratio, High density” value is listed as 0.58 and the “Serum biochemical quantity ratio, Low density” value is 1.11.

Consider phosphatidylethanolamine (P-16:0/18:0), for which, in series [1], the “Serum biochemical quantity ratio, Ratio” value is listed as 1.35. Besides, in the series on Amyloid-β plaque density (*3-15 years old:0-2 years old), the “Serum biochemical quantity ratio, High density” value is on record as 0.92 and the “Serum biochemical quantity ratio, Low density” value is on record as 1.00.

Turning to triacylglycerol 54:4-FA20:4, in series [1], the “Serum biochemical quantity ratio, Ratio” value is reported as 2.38. Also, in the series with Amyloid-β plaque density (setting [3]), the “Serum biochemical quantity ratio, High density” value came to 0.48 and the “Serum biochemical quantity ratio, Low density” value was determined as 1.13.

For triacylglycerol 56:1-FA18:1, the “Serum biochemical quantity ratio, Ratio” value in series [1] turned out to be 4.46. Moreover, in the series with Amyloid-β plaque density (setting [3]), the “Serum biochemical quantity ratio, High density” value turned out to be 0.35 and the “Serum biochemical quantity ratio, Low density” value is reported as 1.01.

triacylglycerol 52:2-FA20:0: the “Serum biochemical quantity ratio, Ratio” value in series [1] is 7.47. Also, in the series on Amyloid-β plaque density (setting [3]), the “Serum biochemical quantity ratio, High density” value is listed as 0.18 and the “Serum biochemical quantity ratio, Low density” value is 1.34.

On to `CC(=O)NCC(=O)O` [N-acetylglycine], for which the “Serum biochemical quantity ratio, Ratio” value in series [1] is 1.13. Moreover, in the series on Amyloid-β plaque density (setting [2]), the “Serum biochemical quantity ratio, High density” value amounted to 0.92 and the “Serum biochemical quantity ratio, Low density” value turned out to be 1.06.

For triacylglycerol 58:7-FA22:4, the “Serum biochemical quantity ratio, Ratio” value in series [1] is 1.47. For the same compound, in the series with Amyloid-β plaque density (setting [3]), the “Serum biochemical quantity ratio, High density” value came to 0.53 and the “Serum biochemical quantity ratio, Low density” value was determined as 0.91.
